PubChem BioAssay AID1224826 | NIAID | 2016
Shown is one part, drawn at random, of about 17,000 reagents tested. About 1,110 of them (6.6%) were called active. 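Active means lowered or raised reporter signal; replicate intensities are raw and not normalised per plate.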 Unmarked entries are inactive. Reagents against one gene are numbered here.

- Assay: 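Genes that change LPS-induced Tnf promoter activity in mouse macrophages when knocked down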 (primary screen)
- Cells: RAW264.7 G9 macrophages from mouse bearing reporters for p65 (GFP) and the Tnf promoter (mCherry)
- Knock-down reagent: siRNA pool against mouse genes, 100 nM
- Timing: 16 h of LPS stimulation, after 2 days of siRNA transfection
- Challenge: bacterial lipopolysaccharide (Salmonella minnesota R595), 10 ng/ml
- Read-out: 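Imaged Tnf reporter mCherry in nuclei, minus background, normalised per plate to the median and expressed as robust z-scores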
- Reading the numbers: Tnf reporter robust z-score: higher = stronger Tnf promoter reporter signal after LPS; Tnf reporter intensity: higher = stronger Tnf promoter reporter signal
- Call rule: 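Called active when robust z-score is at most -1.3, matching the median of the Tlr4 knock-down control, or over 3; control wells and wells with under 50 cells never active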
- Calls: active = Tnf reporter clearly lowered or raised; inactive = no clear change in Tnf reporter

target | reagent no. | Tnf reporter robust z-score | fewer than 50 cells in well | Tnf reporter intensity, replicate 1 | Tnf reporter intensity, replicate 2
Trem3 (triggering receptor expressed on myeloid cells 3) | 1 | 1.18 | enough cells in well | 160 | 134
Trmt10b (tRNA methyltransferase 10B) | 1 | -0.49 | enough cells in well | 87.8 | 126
Aurkc (aurora kinase C) | 1 | -0.4 | enough cells in well | 147 | 134
Garnl3 (GTPase activating RANGAP domain-like 3) | 1 | -0.24 | enough cells in well | 217 | 133
Soat2 (sterol O-acyltransferase 2) | 1 | 0.64 | enough cells in well | 349 | 253
Foxp2 (forkhead box P2) | 1 | 0.81 | enough cells in well | 289 | 334
Sdr42e1 (short chain dehydrogenase/reductase family 42E, member 1) | 1 | – | fewer than 50 cells per well; well left out of calls | 283 | 90.9
Krtap19-9b (keratin associated protein 19-9B) | 1 | 1.01 | enough cells in well | 245 | 213
Fgd2 (FYVE, RhoGEF and PH domain containing 2) | 1 | 0.76 | enough cells in well | 322 | 164
Galk2 (galactokinase 2) | 1 | -0.89 | enough cells in well | 168 | 84.7
Hrg (histidine-rich glycoprotein) | 1 | -0.55 | enough cells in well | 215 | 134
Rxra (retinoid X receptor alpha) | 1 | -0.45 | enough cells in well | 281 | 161
Or5p53 (olfactory receptor family 5 subfamily P member 53) | 1 | 0.17 | enough cells in well | 95.6 | 135
Spesp1 (sperm equatorial segment protein 1) | 1 | -0.99 | enough cells in well | 118 | 43
Spc24 | 1 | – | fewer than 50 cells per well; well left out of calls | 174 | 49.3
Emc6 (ER membrane protein complex subunit 6) | 1 | -0.16 | enough cells in well | 276 | 65
Cux1 (cut-like homeobox 1) | 1 | 1.45 | enough cells in well | 361 | 291
Apol7c (apolipoprotein L 7c) | 1 | -1.09 | enough cells in well | 147 | 38.2
Cd37 (CD37 antigen) | 1 | -0.36 | enough cells in well | 226 | 173
Or4f4b (olfactory receptor family 4 subfamily F member 4B) | 1 | 1.6 | enough cells in well | 309 | 165
Psg18 (pregnancy specific beta-1-glycoprotein 18) | 1 | -0.8 | enough cells in well | 79 | 111
Rpl36al (ribosomal protein L36A-like) | 1 | -0.66 | enough cells in well | 101 | 97.7
Col23a1 (collagen, type XXIII, alpha 1) | 1 | 1.39 | enough cells in well | 315 | 213
Mrgprb2 (MAS-related GPR, member B2) | 1 | -0.21 | enough cells in well | 232 | 219
Slco1a4 | 1 | -0.22 | enough cells in well | 204 | 132
Syt11 (synaptotagmin XI) | 1 | 1.3 | enough cells in well | 163 | 139
Qdpr (quinoid dihydropteridine reductase) | 1 | -0.13 | enough cells in well | 324 | 178
Impa2 (inositol monophosphatase 2) | 1 | 0.71 | enough cells in well | 319 | 170
Rcn1 (reticulocalbin 1) | 1 | 2.83 | enough cells in well | 298 | 201
Pip4p2 (phosphatidylinositol-4,5-bisphosphate 4-phosphatase 2) | 1 | -0.03 | enough cells in well | 247 | 69.5
Samd14 (sterile alpha motif domain containing 14) | 1 | -1.04 | enough cells in well | 133 | 136
Gpbar1 (G protein-coupled bile acid receptor 1) | 1 | 0.34 | enough cells in well | 236 | 334
Csnk1g1 (casein kinase 1, gamma 1) | 1 | -0.13 | enough cells in well | 231 | 113
Vps13b (vacuolar protein sorting 13B) | 1 | 2.45 | enough cells in well | 173 | 347
Rab23 (RAB23, member RAS oncogene family) | 1 | 0.1 | enough cells in well | 279 | 239
Ptgds (prostaglandin D2 synthase (brain)) | 1 | -0.47 | enough cells in well | 209 | 160
Defa5 (defensin, alpha, 5) | 1 | -0.21 | enough cells in well | 171 | 153
Aplp1 (amyloid beta precursor like protein 1) | 1 | – | fewer than 50 cells per well; well left out of calls | 93.8 | 48.7
Olfm2 (olfactomedin 2) | 1 | 0.75 | enough cells in well | 202 | 190
Acot3 (acyl-CoA thioesterase 3) | 1 | -1.32 (active) | enough cells in well | 85.4 | 58
Trub1 (TruB pseudouridine (psi) synthase family member 1) | 1 | 2.09 | enough cells in well | 398 | 128
Psmg2 (proteasome (prosome, macropain) assembly chaperone 2) | 1 | – | fewer than 50 cells per well; well left out of calls | 59 | 60
Riox1 (ribosomal oxygenase 1) | 1 | – | fewer than 50 cells per well; well left out of calls | 190 | 59.3
L3mbtl4 (L3MBTL4 histone methyl-lysine binding protein) | 1 | – | fewer than 50 cells per well; well left out of calls | 134 | 103
L3mbtl4 (L3MBTL4 histone methyl-lysine binding protein) | 2 | -1.74 (active) | enough cells in well | 86 | 60.2
Gatad1 (GATA zinc finger domain containing 1) | 1 | -1.46 (active) | enough cells in well | 102 | 36.9
Ehbp1 (EH domain binding protein 1) | 1 | -0.49 | enough cells in well | 130 | 153
Aadac (arylacetamide deacetylase) | 1 | 1.36 | enough cells in well | 214 | 263
Or5m9b (olfactory receptor family 5 subfamily M member 9B) | 1 | 2.65 | enough cells in well | 278 | 348
Atp5pf (ATP synthase peripheral stalk subunit F6) | 1 | 1.33 | enough cells in well | 178 | 279
Anxa2 (annexin A2) | 1 | -0.9 | enough cells in well | 121 | 113
Il2 (interleukin 2) | 1 | 0.22 | enough cells in well | 174 | 178
Ddt (D-dopachrome tautomerase) | 1 | – | fewer than 50 cells per well; well left out of calls | 64.9 | 27.8
Mfap3 (microfibrillar-associated protein 3) | 1 | -0.3 | enough cells in well | 229 | 61.7
Nup42 (nucleoporin 42) | 1 | -0.72 | enough cells in well | 148 | 109
Or7a42 (olfactory receptor family 7 subfamily A member 42) | 1 | – | fewer than 50 cells per well; well left out of calls | 58.6 | 74.2
Rnf125 (ring finger protein 125) | 1 | 2.39 | enough cells in well | 254 | 208
Rnf26 (ring finger protein 26) | 1 | – | fewer than 50 cells per well; well left out of calls | 125 | 59.9

A stretch from the list above:
target | reagent no. | Tnf reporter robust z-score | fewer than 50 cells in well | Tnf reporter intensity, replicate 1 | Tnf reporter intensity, replicate 2
Syt11 (synaptotagmin XI) | 1 | 1.3 | enough cells in well | 163 | 139
Qdpr (quinoid dihydropteridine reductase) | 1 | -0.13 | enough cells in well | 324 | 178
Impa2 (inositol monophosphatase 2) | 1 | 0.71 | enough cells in well | 319 | 170
Rcn1 (reticulocalbin 1) | 1 | 2.83 | enough cells in well | 298 | 201
Pip4p2 (phosphatidylinositol-4,5-bisphosphate 4-phosphatase 2) | 1 | -0.03 | enough cells in well | 247 | 69.5
